Results: article PMC8357241
The exact form of at least one protein or probe is not confirmed.

Chains of the proteins cited; added tags and fusions are not shown.
UniProt P09874, whole entry: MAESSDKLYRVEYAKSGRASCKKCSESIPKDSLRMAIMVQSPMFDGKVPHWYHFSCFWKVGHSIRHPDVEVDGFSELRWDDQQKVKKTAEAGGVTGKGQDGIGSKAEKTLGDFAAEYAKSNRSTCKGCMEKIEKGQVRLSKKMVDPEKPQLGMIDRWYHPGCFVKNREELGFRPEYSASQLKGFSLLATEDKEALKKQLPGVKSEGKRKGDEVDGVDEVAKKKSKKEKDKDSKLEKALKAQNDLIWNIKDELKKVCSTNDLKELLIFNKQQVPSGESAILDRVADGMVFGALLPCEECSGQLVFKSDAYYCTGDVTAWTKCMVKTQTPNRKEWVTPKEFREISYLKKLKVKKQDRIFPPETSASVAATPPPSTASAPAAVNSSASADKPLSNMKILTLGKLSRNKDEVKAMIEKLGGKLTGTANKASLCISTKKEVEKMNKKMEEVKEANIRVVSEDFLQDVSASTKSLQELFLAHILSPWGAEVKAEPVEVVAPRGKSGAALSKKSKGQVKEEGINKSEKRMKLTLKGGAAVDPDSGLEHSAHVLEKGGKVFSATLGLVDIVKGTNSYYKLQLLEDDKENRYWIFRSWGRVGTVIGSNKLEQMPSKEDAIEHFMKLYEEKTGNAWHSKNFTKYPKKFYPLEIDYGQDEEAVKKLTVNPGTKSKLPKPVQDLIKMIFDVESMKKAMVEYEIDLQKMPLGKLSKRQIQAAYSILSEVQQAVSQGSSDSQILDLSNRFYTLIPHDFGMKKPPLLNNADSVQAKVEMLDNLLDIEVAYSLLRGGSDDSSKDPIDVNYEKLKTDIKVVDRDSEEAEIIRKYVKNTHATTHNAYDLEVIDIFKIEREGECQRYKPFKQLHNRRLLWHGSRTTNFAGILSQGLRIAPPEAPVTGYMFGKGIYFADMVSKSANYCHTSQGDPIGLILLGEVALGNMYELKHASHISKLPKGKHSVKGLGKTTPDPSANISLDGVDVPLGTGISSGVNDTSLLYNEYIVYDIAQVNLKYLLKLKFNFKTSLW

Target: PARP1 (UniProt P09874)
Assay: AFM in liquid
Settings: nick by Nt.BsmAI between bases 172 and 173, AFM: 12.5 mM NaCl, 12.5 mM Hepes, 0.5 mM TCEP pH 7.8, room temperature, recombinant protein, protein details: N-terminal His6-AviTag, probe letters rebuilt from the primers and the genome

“TGAAATTGCCGCGTATTACGCCGCAGCGCCGGTCCGGCTGGGAGGCGCAAAAGTACCGCACCTGATGCCGGGTGACTCACTGAACCTGCAGACGGCTCAGGATACGGATAACGGCTACTCCGTGTTTGAGCAGTCACTGCTGCGGTATATCGCTGCCGGGCTGGGTGTCTCGTATGAGCAGCTTTCCCGGAATTACGCCCAGATGAGCTACTCCACGGCACGGGCCAGTGCGAACGAGTCGTGGGCGTACTTTATGGGGCGGCGAAAATTCGTCGCATCCCGTCAGGCGAGCCAGATGTTTCTGTGCTGGCTGGAAGAGGCCATCGTTCGCCGCGTGGTGACGTTACCTTCAAAAGCGCGCTTCAGTTTTCAGGAAGCCCGCAGTGCCTGGGGGAACTGCGACTGGATAGGCTCCGGTCGTATGGCCATCGATGGTCTGAAAGAAGTTCAGGAAGCGGTGATGCTGATAGAAGCCGGACTGAGTACCTACGAGAAA (double strand) [496-bp lambda PCR fragment with SSB]”: binds (500 nM olaparib, similar height profiles); binds (no olaparib).
